# Source: PubChem BioAssay AID540276 (National Center for Advancing Translational Sciences (NCATS), 2011)
# Hit rate of the full screen: of about 300,000 compounds, about 5,400 (1.8%) were called active. The shares of active, inactive and inconclusive entries below differ from those in the screen. Calls follow the shape of the full dose curve; tested in HEK293 cells. A potency beside an inconclusive call is a rough fit, not a confirmed value.
# Assay: qHTS for inhibitors of binding or entry into cells for Marburg Virus
# Conditions: Marburg virus pseudotyped entry inhibition, cell reporter; activity change, negative = inhibition: at 37.8 µM (top of the series) unless noted
# % is scaled to controls: 0 for no effect and ±100 for the full control effect; potency is read from the fitted curve at half-maximal effect.
SMILES,Potency,"activity change, negative = inhibition"
COc1cccc(CNC(=O)CCn2ccc3cc(S(=O)(=O)N4CCC(C)CC4)ccc32)c1,"inconclusive: 6.31 µM [inhibitor, partial curve]",–
O=C(NCc1ccco1)c1c(F)cccc1Cl,"inconclusive: 35.5 µM [activator, single point]",–
CCC(C)c1ccccc1N1CC(C(=O)NCCC2=CCCCC2)CC1=O (stereo not given),–,inactive: -26.6%
COc1ccc(OC)c(CNc2ccc3c(c2)nc(C)n3C)c1,inactive,–
COc1cc(CNCCCN2CCOCC2)c(Br)cc1OC(C)C,"inconclusive: 11.2 µM [inhibitor, single point]",–
CC(C)c1ccc(NC(=O)c2ccc3oc(=O)c(S(=O)(=O)c4ccc(F)cc4)cc3c2)cc1,"inconclusive: 5.62 µM [activator, single point]",–
O=C(CCl)Nc1cccc2ncccc12,"inconclusive: 11.2 µM [inhibitor, partial curve, poor fit]",–
Cc1cc(C)nc(NS(=O)(=O)c2ccc(N/C=C/C(=O)c3ccc(Cl)cc3)cc2)n1,–,inactive: 0.161%
CN1CCN(c2ccccc2NC(=O)c2ccc(-c3cccc([N+](=O)[O-])c3)o2)CC1,"inconclusive: 10 µM [inhibitor, partial curve, poor fit]",–
O=C(/C=C/c1ccco1)N(Cc1ccc(F)cc1)C1CCS(=O)(=O)C1 (stereo not given),–,inactive: 4.58% [at 46.1 µM]
Cc1ccc(OCc2ccc(C(=O)N3CCOCC3)cc2)cc1C,–,inactive: -7.58%
CC(=O)O[C@]1(C(C)=O)CC[C@H]2[C@@H]3C=C(Cl)C4=CC(=O)[C@@H]5C[C@@H]5[C@]4(C)[C@H]3CC[C@@]21C,"inconclusive: 16.4 µM [inhibitor, partial curve, poor fit]",–
CC1=CC=CC2=NC(=O)CC(C)(C(=O)N(CC(=O)NC(C)C)C3CCCC3)N12 (stereo not given),–,inactive: 15.5%
COc1ccc(CN(C)CC(=O)Nc2cc3oc4ccccc4c3cc2OC)c(OC)c1,"inconclusive: 14.6 µM [inhibitor, single point]",–
CC(C)CN=CC1=C(O)c2ccccc2C1=O,–,inactive: 0.96%
CSc1nnc2c(n1)c(C)nn2-c1cccc(C)c1,"inconclusive: 29.1 µM [activator, single point]",–
O=C1Nc2ccccc2C1Cc1ccccn1 (stereo not given),–,inactive: 3.84%
CC(C)C[C@@H]1COc2cc(NCCCN3CCOCC3)ccc2S(=O)(=O)N1,"inconclusive: 0.0089 µM [activator, full curve, poor fit]",–
O=C(c1cccc(Br)c1)N1CCN(C(=O)c2cccc(Br)c2)CC1,"inconclusive: 8.91 µM [inhibitor, partial curve, poor fit]",–
CCn1c(COc2ccccc2Cl)nnc1SCC(=O)Nc1ncccc1C,"inconclusive: 2.51 µM [activator, partial curve, poor fit]",–
Cc1occc1C(=O)N/N=C/c1ccccc1[N+](=O)[O-],"inconclusive: 3.55 µM [activator, partial curve, poor fit]",–
CN(C(=O)c1ccc2nc(N)sc2c1)c1ccccc1,"inconclusive: 2.82 µM [inhibitor, partial curve, poor fit]",–
COc1cc(OC)cc(C(=O)Nc2ccc3nc4c(c(Nc5ccc(OC)c(OC)c5)c3c2)CCCC4)c1,active: 2.51 µM,–
O=C(COC(=O)CNC(=O)c1ccccc1)NC1CCCCC1,"inconclusive: 0.0891 µM [inhibitor, full curve, poor fit]",–

SMILES,Potency,"activity change, negative = inhibition"
COc1ccc(/C(O)=C2/C(=O)C(=O)N(CCN(C)C)C2c2ccc(C)cc2)cc1Cl (stereo not given),"inconclusive: 32.6 µM [activator, partial curve, poor fit]",–
CCOC(=O)Nc1ccc(C(=O)/C=C/c2ccccc2)cc1,"inconclusive: 20 µM [inhibitor, partial curve, poor fit]",–
O=C(CCSCc1ccc(Cl)cc1)NCCc1ccccc1,"inconclusive: 3.98 µM [activator, partial curve, poor fit]",–
CC1CCCCN1C(=O)COC(=O)c1cc([N+](=O)[O-])ccc1N (stereo not given),"inconclusive: 4.47 µM [activator, full curve, poor fit]",–
Cc1nn(-c2ccccc2)c2c1C1(C(=O)Nc3ccccc31)N1C(=N2)Sc2ccccc21 (stereo not given),"inconclusive: 20 µM [inhibitor, partial curve, poor fit]",–
CSc1nnc(-c2cccn(Cc3ccccc3)c2=O)o1,"inconclusive: 22.4 µM [activator, single point]",–
CSc1ccccc1OCc1cc(C(=O)N2CCCC(C)C2)no1 (stereo not given),–,inactive: -8.33%
C=CCSc1nnc2c(n1)OC(c1ccco1)Nc1ccccc1-2 (stereo not given),–,inactive: 4.43%
Nc1c2c(=O)oc(-c3ccccc3)cc2nn1-c1ccccc1,"inconclusive: 29.1 µM [inhibitor, single point]",–
O=C(O)C1CCCN(CCC=C(c2ccccc2)c2ccccc2)C1 (stereo not given),–,inconclusive: 4.21% [inhibitor]
COc1ccc2c(c1OC)C(=O)N(c1nc(SC)n[nH]1)C2=O,–,inactive: 9.51%
COC(=O)c1ccc(OCC(=O)c2cccc(OC)c2)cc1,"inconclusive: 13 µM [activator, partial curve]",–
CN(C)CCCN(C(=O)c1ccc(C(=O)c2ccccc2)cc1)c1nc2cc3c(cc2s1)OCO3,active: 15.8 µM,–
COc1ccc(S(=O)(=O)/N=C2/NC(=O)/C(=C/c3ccco3)S2)cc1,–,inactive: 8.79%
Cc1c(Cl)cccc1N1CCn2c1nc1c2c(=O)n(CC(=O)O)c(=O)n1C,–,inactive: -4.09% [at 46.1 µM]
CN(C)S(=O)(=O)c1ccc(C(=O)NCCSc2c(-c3ccc(Br)cc3)[nH]c3ccccc23)cc1,"inconclusive: 17.8 µM [inhibitor, single point]",–
CCOc1ccc(NC(=O)Nc2ccc(Cc3ccncc3)cc2)cc1,"inconclusive: 7.94 µM [inhibitor, partial curve, poor fit]",–
Cc1noc(C)c1C(=O)Nc1ccc(F)cc1F,"inconclusive: 0.1 µM [inhibitor, full curve, poor fit]",–
Cc1cc(C)n(-c2ccc(NC(=O)C3CCCCN3C(=O)c3sccc3C)cc2)n1 (stereo not given),"inconclusive: 3.55 µM [inhibitor, single point]",–
CCc1ccc(C2=NN(S(C)(=O)=O)C(c3cccs3)C2)cc1 (stereo not given),"inconclusive: 0.58 µM [activator, single point]",–
CCc1cccc2c(C#N)cn(CC(=O)NCCOC)c12,"inconclusive: 0.092 µM [inhibitor, full curve]",–
CNC(=O)c1c(NC(=O)c2cc(=O)c3cc(C)c(C)cc3o2)sc2c1CCCC2,"inconclusive: 20 µM [inhibitor, partial curve, poor fit]",–
O=C(NCc1ccccc1)C(c1ccc(O)cc1)N(C(=O)c1cnccn1)c1ccccc1 (stereo not given),–,inactive: -15.6% [at 46.1 µM]
COc1ccc(N2CC(O)=C(c3n(C)c4ccccc4[n+]3C)C2=N)cc1,–,inactive: 2.93%

# Compounds listed so far that have fluorine (4):
SMILES,Potency,"activity change, negative = inhibition"
O=C(NCc1ccco1)c1c(F)cccc1Cl,"inconclusive: 35.5 µM [activator, single point]",–
CC(C)c1ccc(NC(=O)c2ccc3oc(=O)c(S(=O)(=O)c4ccc(F)cc4)cc3c2)cc1,"inconclusive: 5.62 µM [activator, single point]",–
O=C(/C=C/c1ccco1)N(Cc1ccc(F)cc1)C1CCS(=O)(=O)C1 (stereo not given),–,inactive: 4.58% [at 46.1 µM]
Cc1noc(C)c1C(=O)Nc1ccc(F)cc1F,"inconclusive: 0.1 µM [inhibitor, full curve, poor fit]",–

# (cont.)

SMILES,Potency,"activity change, negative = inhibition"
O=C(Cn1nc(Cc2ccncc2)c2ccccc2c1=O)Nc1cccc(C(F)(F)F)c1,"inconclusive: 17.8 µM [inhibitor, partial curve, poor fit]",–
COc1ccc(-c2noc(-c3cccc(Cl)c3)n2)cc1OC,"inconclusive: 1.41 µM [activator, partial curve, poor fit]",–
CCOC(=O)C1(C(=O)OCC)C(C(=O)c2ccccc2)C1c1ccccc1 (stereo not given),"inconclusive: 10 µM [inhibitor, partial curve, poor fit]",–
CC(=O)c1cnc(Nc2cccc(Cl)c2Cl)s1,–,inactive: 8.27% [at 46.1 µM]
CC(C)C(=O)NC(Nc1ccccc1F)C(Cl)(Cl)Cl (stereo not given),–,inactive: -9.85%
COc1ccc(C(=O)NCCc2nnc3ccc(SCC(=O)Nc4ccccc4F)nn23)cc1,–,inactive: 6.43%
C=CCc1ccccc1Oc1cc(OC)nc(N)n1,–,inactive: 19.5%
O=C(Cc1csc(NC(=O)Nc2cccc(Cl)c2)n1)NC1CCCC1,active: 12.6 µM,–
Cc1ccc(NC(C(N)=O)c2c(C)[nH]c(=O)[nH]c2=O)cc1 (stereo not given),"inconclusive: 35.5 µM [activator, single point]",–
COc1ccc(-c2nc(CSCC(=O)NCCC3=CCCCC3)c(C)o2)cc1OC,"inconclusive: 39.8 µM [inhibitor, partial curve, poor fit]",–
O=C(O)c1ccccc1C(=O)NNc1ccc(Cl)cc1,–,inactive: 1.08%
Cn1c(-c2ccco2)nc2cc3ccccc3cc21,"inconclusive: 5.17 µM [inhibitor, full curve, poor fit]",–
COC(=O)C1=C(C)NC(=O)NC1c1cn(-c2ccccc2)nc1-c1ccc(OC)c(Br)c1 (stereo not given),"inconclusive: 8.91 µM [inhibitor, partial curve, poor fit]",–
Cc1ccc(C(=O)CCNc2ccc(Br)cc2)o1,–,inactive: 28.4%
CCc1nnc(NC(=O)C2CCCN2C(=O)NC2CCCCC2)s1 (stereo not given),"inconclusive: 1.12 µM [inhibitor, partial curve, poor fit]",–
COc1ccc(NC(=O)CCN2C(=O)c3ccccc3S2(=O)=O)c(OC)c1,–,inactive: -7.16% [at 46.1 µM]
O=C(COC(=O)/C=C/c1ccc(OC(F)F)cc1)Nc1ccc2[nH]c(=O)[nH]c2c1,–,inactive: -18.7%
N#CCSc1nnc(Nc2ccccc2)s1,–,inactive: 11.7%
COc1ccc(C2NC(=O)NC3=C2CCc2ccccc23)cc1 (stereo not given),"inconclusive: 3.98 µM [inhibitor, full curve]",–
Cc1nn(Cc2ccccc2)c(C)c1NC(=O)c1cc(-c2ccco2)on1,"inconclusive: 32.6 µM [inhibitor, single point]",–
COc1ccc(NC(=O)CNS(=O)(=O)c2ccc3nc(C)sc3c2)c(OC)c1,–,inactive: 16.4%
COc1ccc2oc(=O)c(-c3nnc(NCc4ccco4)s3)cc2c1,"inconclusive: 14.1 µM [inhibitor, partial curve, poor fit]",–
